PubChem BioAssay AID504764, Drosophila RNAi Screening Center | 2011
The screen tested about 22,000 reagents; this is a random part of those with a known target gene and a result. Over the whole deposit, 403 (1.9%) got an active call. 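Unnormalised raw counts per well; ratio z-scores behind the hit calls and whether each hit raises or lowers signal are not deposited.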 The numbers tell different reagents against one gene apart. A plus sign joins genes that one reagent is predicted to hit. Not stated in the record: the amount of reagent.

- Test: 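Knock-downs that raise or lower a Notch target reporter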 (primary screen)
- Cell system: Drosophila Kc167 cells
- Reagent: long dsRNA against Drosophila genes
- Timing: about 5 days (4 days dsRNA, then 24 h after transfection)
- Conditions: transfection of constitutively active membrane-tethered Notch lacking the extracellular domain, read 24 h later
- Read-out: 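Light from a Notch-responsive E(spl)m3 luciferase reporter under active Notch, with control-promoter and no-Notch reporter wells to normalise; raw counts from paired wells a and b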
- Scale: induced reporter light, run 1, well a and induced reporter light, run 1, well b: higher = more light from the Notch target reporter with active Notch; control promoter light, run 1, well a and control promoter light, run 1, well b: higher = more light from the viral control promoter (cell number, transfection, viability); uninduced reporter light, run 1, well a: higher = more light from the Notch target reporter without active Notch
- Active means: 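Wells with low control signal or poorly matching duplicates excluded; duplicates averaged; per source plate, z beyond ±2 for induced/control log2 ratio or beyond ±1.8 for induced/uninduced marks a hit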
- Calls: active = modifier hit (raised or lowered Notch signal); inactive = not a hit

gene	reagent no.	induced reporter light, run 1, well a	induced reporter light, run 1, well b	control promoter light, run 1, well a	control promoter light, run 1, well b	uninduced reporter light, run 1, well a	Outcome
shtd	1	1.60e5	1.55e5	1.90e5	2.00e5	11335	inactive
Acp26Ab	1	1.06e5	89435	82840	71245	4500	inactive
CG9903	1	74620	62075	60915	59410	7650	inactive
RunxB	1	1.14e5	90450	97415	93760	7180	inactive
RunxB	2	45995	64950	51835	66965	9070	inactive
RunxB	3	2332	2620	2670	2735	3240	inactive
slmb	1	16105	19985	15830	18110	2630	inactive
CG2691	1	88105	1.03e5	1.52e5	1.61e5	6250	inactive
CG8475	1	1.13e5	1.59e5	1.33e5	1.59e5	13665	inactive
RpL22	1	1.20e5	1.06e5	1.72e5	1.56e5	8575	inactive
Upf2	1	1.42e5	1.39e5	3.42e5	3.66e5	14210	active
CG9231	1	1.18e5	1.28e5	85830	1.07e5	9885	inactive
Dh44-R1	1	90785	1.02e5	71950	84880	8115	inactive
EndoG	1	1.39e5	1.51e5	1.59e5	1.51e5	12560	inactive
Smyd4-4	1	1.55e5	1.09e5	1.05e5	92340	10100	inactive
CG5114	1	1.50e5	1.64e5	1.42e5	1.56e5	13565	inactive
LysD + LysB + LysC (retired record)	1	1.26e5	1.25e5	1.23e5	1.29e5	9260	inactive
DAAM	1	1.62e5	2.00e5	2.35e5	2.25e5	13585	inactive
Ccp84Ag	1	1.07e5	97315	91815	82305	6460	inactive
Wdr81	1	2.22e5	1.98e5	1.82e5	2.22e5	17390	inactive
Cyp301a1	1	1.28e5	1.02e5	1.35e5	1.28e5	8810	inactive
AsnRS	1	1.72e5	1.84e5	1.29e5	1.45e5	13925	inactive
CG3062	1	1.19e5	1.18e5	2.28e5	2.88e5	11645	inactive
Ir94g	1	1.66e5	1.53e5	1.88e5	1.67e5	10740	inactive
Ugt301D1	1	1.71e5	1.70e5	1.91e5	1.66e5	16770	inactive

Copied from the listing, 6 entries:
gene	reagent no.	induced reporter light, run 1, well a	induced reporter light, run 1, well b	control promoter light, run 1, well a	control promoter light, run 1, well b	uninduced reporter light, run 1, well a	Outcome
Wdr81	1	2.22e5	1.98e5	1.82e5	2.22e5	17390	inactive
Cyp301a1	1	1.28e5	1.02e5	1.35e5	1.28e5	8810	inactive
AsnRS	1	1.72e5	1.84e5	1.29e5	1.45e5	13925	inactive
CG3062	1	1.19e5	1.18e5	2.28e5	2.88e5	11645	inactive
Ir94g	1	1.66e5	1.53e5	1.88e5	1.67e5	10740	inactive
Ugt301D1	1	1.71e5	1.70e5	1.91e5	1.66e5	16770	inactive

Further records follow:
gene	reagent no.	induced reporter light, run 1, well a	induced reporter light, run 1, well b	control promoter light, run 1, well a	control promoter light, run 1, well b	uninduced reporter light, run 1, well a	Outcome
CG11836	1	1.78e5	1.90e5	2.21e5	2.75e5	15265	inactive
Xrcc2	1	82650	73335	1.02e5	75510	11475	inactive
ste24c + CG30461	1	89430	66840	88140	81115	7505	inactive
ste24c + CG30461	2	1.63e5	99880	1.08e5	1.12e5	8530	inactive
CG14607	1	30410	28755	50445	37215	4082	inactive
wls	1	1.72e5	2.28e5	1.41e5	85840	15760	inactive
ATPsynbeta	1	11675	10990	18150	21865	635	inactive
Cdc16	1	1.07e5	1.18e5	1.29e5	1.37e5	9585	inactive
Dyrk3	1	72010	74285	90070	69035	5490	inactive
CHMP2B	1	1.27e5	1.07e5	99815	57645	9990	inactive
Afti	1	1.15e5	1.12e5	56570	57850	10265	inactive
CG14174	1	98760	1.06e5	1.61e5	1.70e5	4685	inactive
rgn	1	94030	1.15e5	71170	78765	7500	inactive
Syx1A	1	1.35e5	1.19e5	1.48e5	1.33e5	12332	inactive
CG34328	1	79250	72920	83845	90475	7060	inactive
CG6138	1	1.65e5	2.04e5	93640	1.14e5	21182	inactive
mthl10	1	1.32e5	1.43e5	1.87e5	1.73e5	9685	inactive
mthl10	2	1.34e5	1.47e5	2.20e5	1.48e5	9245	inactive
Cpr49Ab	1	1.52e5	1.64e5	2.87e5	2.87e5	15520	inactive
CG3600 (retired record)	1	92330	89790	1.39e5	1.08e5	8520	inactive
CG11617	1	49860	44465	40365	23040	5635	inactive
CG11617	2						inactive
CG8838	1	1.80e5	1.69e5	1.71e5	1.84e5	14145	inactive
pre-mod(mdg4)-U + mod(mdg4)	1	76615	83155	1.01e5	86830	10165	inactive
Kif3C	1	1.14e5	1.09e5	1.69e5	2.01e5	8630	inactive
Kif3C	2	1.61e5	1.37e5	2.22e5	1.78e5	9688	inactive
